These are yes or no findings as the source states them, for the method shown. In cells and extracts the contact can be indirect. Some results given as binding are weak or reduced against the parent protein; the word gives no strength.
Tests used:
[1] = biological target: endogenous MDM2 (human (endogenous in HepG2)), Q00987; assay: co-IP; endogenous proteins in HepG2 lysate, cells untreated or treated with arsenite (20 μM); immunoprecipitation (anti-p53, anti-Ets-1 or control IgG for p53/Ets-1 and DAPK1); conditions: remark: other sources report otherwise
HA-MDM2, Q00987 = assay: co-IP; HepG2 cells transfected with HA-MDM2 or control vector; lysate immunoprecipitated with anti-HA antibody, blotted for endogenous IKKβ and IKKα; also with p65 siRNA or control siRNA (Fig. 5g); conditions: remark: other sources report otherwise
HA-MDM2 = HA-MDM2 (UniProt Q00987); assay: co-IP; HepG2 cells transfected with combinations of plasmids for wild type MDM2, IKKβ or their mutants; reciprocal immunoprecipitations

The chains behind the UniProt entries cited, without tags or fusion partners.
UniProt Q00987: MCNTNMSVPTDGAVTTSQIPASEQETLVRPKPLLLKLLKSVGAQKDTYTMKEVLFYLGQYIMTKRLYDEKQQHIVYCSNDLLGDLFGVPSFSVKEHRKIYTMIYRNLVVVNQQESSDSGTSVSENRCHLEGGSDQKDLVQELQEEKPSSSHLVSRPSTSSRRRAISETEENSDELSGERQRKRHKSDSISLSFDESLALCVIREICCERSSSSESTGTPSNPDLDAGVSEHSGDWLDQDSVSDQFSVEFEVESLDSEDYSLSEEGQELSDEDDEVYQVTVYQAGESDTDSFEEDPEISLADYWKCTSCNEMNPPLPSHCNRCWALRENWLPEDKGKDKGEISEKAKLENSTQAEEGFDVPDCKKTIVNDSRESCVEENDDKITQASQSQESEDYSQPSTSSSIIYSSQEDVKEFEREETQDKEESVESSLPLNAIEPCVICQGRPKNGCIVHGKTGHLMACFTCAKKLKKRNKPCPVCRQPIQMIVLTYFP

binding [1] | binding (HA-MDM2, Q00987) | binding (HA-MDM2) | Binder
binds | binds |  | endogenous IKKβ, O14920 1-756 (protein) MSWSPSLTTQTCGAWEMKERLGTGGFGNVIRWHNQETGEQIAIKQCRQELSPRNRERWCLEIQIMRRLTHPNVVAARDVPEGMQNLAPNDLPLLAMEYCQGGDLRKYLNQFENCCGLREGAILTLLSDIASALRYLHENRIIHRDLKPENIVLQQGEQRLIHKIIDLGYAKELDQGSLCTSFVGTLQYLAPELLEQQKYTVTVDYWSFGTLAFECITGFRPFLPNWQPVQWHSKVRQKSEVDIVVSEDLNGTVKFSSSLPYPNNLNSVLAERLEKWLQLMLMWHPRQRGTDPTYGPNGCFKALDDILNLKLVHILNMVTGTIHTYPVTEDESLQSLKARIQQDTGIPEEDQELLQEAGLALIPDKPATQCISDGKLNEGHTLDMDLVFLFDNSKITYETQISPRPQPESVSCILQEPKRNLAFFQLRKVWGQVWHSIQTLKEDCNRLQQGQRAAMMNLLRNNSCLSKMKNSMASMSQQLKAKLDFFKTSIQIDLEKYSEQTEFGITSDKLLLAWREMEQAVELCGRENEVKLLVERMMALQTDIVDLQRSPMGRKQGGTLDDLEEQARELYRRLREKPRDQRTEGDSQEMVRLLLQAIQSFEKKVRVIYTQLSKTVVCKQKALELLPKVEEVVSLMNEDEKTVVRLQEKRQKELWNLLKIACSKVRGPVSGSPDSMNASRLSQPGQLMSQPSTASNSLPEPAKKSEELVAEAHNLCTLLENAIQDTVREQDQSFTALDWSWLQTEEEEHSCLEQAS
 |  | binds | IKKβΔ239–246 (protein, UniProt O14920) MSWSPSLTTQTCGAWEMKERLGTGGFGNVIRWHNQETGEQIAIKQCRQELSPRNRERWCLEIQIMRRLTHPNVVAARDVPEGMQNLAPNDLPLLAMEYCQGGDLRKYLNQFENCCGLREGAILTLLSDIASALRYLHENRIIHRDLKPENIVLQQGEQRLIHKIIDLGYAKELDQGSLCTSFVGTLQYLAPELLEQQKYTVTVDYWSFGTLAFECITGFRPFLPNWQPVQWHSKVRQKEDLNGTVKFSSSLPYPNNLNSVLAERLEKWLQLMLMWHPRQRGTDPTYGPNGCFKALDDILNLKLVHILNMVTGTIHTYPVTEDESLQSLKARIQQDTGIPEEDQELLQEAGLALIPDKPATQCISDGKLNEGHTLDMDLVFLFDNSKITYETQISPRPQPESVSCILQEPKRNLAFFQLRKVWGQVWHSIQTLKEDCNRLQQGQRAAMMNLLRNNSCLSKMKNSMASMSQQLKAKLDFFKTSIQIDLEKYSEQTEFGITSDKLLLAWREMEQAVELCGRENEVKLLVERMMALQTDIVDLQRSPMGRKQGGTLDDLEEQARELYRRLREKPRDQRTEGDSQEMVRLLLQAIQSFEKKVRVIYTQLSKTVVCKQKALELLPKVEEVVSLMNEDEKTVVRLQEKRQKELWNLLKIACSKVRGPVSGSPDSMNASRLSQPGQLMSQPSTASNSLPEPAKKSEELVAEAHNLCTLLENAIQDTVREQDQSFTALDWSWLQTEEEEHSCLEQAS
 |  | binds | IKKβΔ294–302 (protein, UniProt O14920) MSWSPSLTTQTCGAWEMKERLGTGGFGNVIRWHNQETGEQIAIKQCRQELSPRNRERWCLEIQIMRRLTHPNVVAARDVPEGMQNLAPNDLPLLAMEYCQGGDLRKYLNQFENCCGLREGAILTLLSDIASALRYLHENRIIHRDLKPENIVLQQGEQRLIHKIIDLGYAKELDQGSLCTSFVGTLQYLAPELLEQQKYTVTVDYWSFGTLAFECITGFRPFLPNWQPVQWHSKVRQKSEVDIVVSEDLNGTVKFSSSLPYPNNLNSVLAERLEKWLQLMLMWHPRQRGTDPTLDDILNLKLVHILNMVTGTIHTYPVTEDESLQSLKARIQQDTGIPEEDQELLQEAGLALIPDKPATQCISDGKLNEGHTLDMDLVFLFDNSKITYETQISPRPQPESVSCILQEPKRNLAFFQLRKVWGQVWHSIQTLKEDCNRLQQGQRAAMMNLLRNNSCLSKMKNSMASMSQQLKAKLDFFKTSIQIDLEKYSEQTEFGITSDKLLLAWREMEQAVELCGRENEVKLLVERMMALQTDIVDLQRSPMGRKQGGTLDDLEEQARELYRRLREKPRDQRTEGDSQEMVRLLLQAIQSFEKKVRVIYTQLSKTVVCKQKALELLPKVEEVVSLMNEDEKTVVRLQEKRQKELWNLLKIACSKVRGPVSGSPDSMNASRLSQPGQLMSQPSTASNSLPEPAKKSEELVAEAHNLCTLLENAIQDTVREQDQSFTALDWSWLQTEEEEHSCLEQAS

From paper PMC6355650
